# Experimental data reported in publication PMC3072370.
# Amino acid sequences for entries named in this document (tags omitted). Residues count along the entry.
# UniProt P63165, residues 1-97: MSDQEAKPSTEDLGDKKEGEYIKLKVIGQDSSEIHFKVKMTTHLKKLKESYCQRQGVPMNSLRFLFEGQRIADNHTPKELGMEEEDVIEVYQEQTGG
# UniProt Q9C035: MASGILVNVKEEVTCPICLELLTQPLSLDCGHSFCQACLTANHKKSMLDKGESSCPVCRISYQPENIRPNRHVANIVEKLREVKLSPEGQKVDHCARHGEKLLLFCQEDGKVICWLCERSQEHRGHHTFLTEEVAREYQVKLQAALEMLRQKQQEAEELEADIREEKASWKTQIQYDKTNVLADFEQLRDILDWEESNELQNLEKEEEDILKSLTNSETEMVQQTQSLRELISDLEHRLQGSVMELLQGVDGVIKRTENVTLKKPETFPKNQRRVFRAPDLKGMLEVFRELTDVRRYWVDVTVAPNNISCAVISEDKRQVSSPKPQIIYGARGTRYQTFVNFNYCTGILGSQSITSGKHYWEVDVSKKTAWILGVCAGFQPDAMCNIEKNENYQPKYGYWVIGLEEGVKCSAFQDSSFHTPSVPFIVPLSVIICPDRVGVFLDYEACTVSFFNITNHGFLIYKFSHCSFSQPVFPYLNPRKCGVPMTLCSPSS
# Results are given in words; binding and its absence hold for the method and conditions named. Binding seen in cells or lysates may run through a third protein. Some entries that bind do so weakly or less than the wild type.
# Target: GST-SUMO-1 fusion protein (human) (UniProt P63165)
# Experiment: pull-down; 2 µg purified GST-SUMO1 on Glutathione Sepharose 4B with 100 µl lysate of 293T cells transfected with FLAG-TRIM5α; binding buffer 20 mM Tris-HCl pH 8.0, 100 mM KCl, 10 mM EDTA, 0.5 mM DTT, 2 hours; 4 washes with 0.2% NP-40; anti-FLAG blot; only the target purified
substance,measurement,value
FLAG-tagged human TRIM5α (wild type) (from UniProt Q9C035 1-493),binding,binds weakly
